Data on two molecules can be found in article PMC7145421.

The chains behind the UniProt entries cited, without tags or fusion partners.
UniProt P19525: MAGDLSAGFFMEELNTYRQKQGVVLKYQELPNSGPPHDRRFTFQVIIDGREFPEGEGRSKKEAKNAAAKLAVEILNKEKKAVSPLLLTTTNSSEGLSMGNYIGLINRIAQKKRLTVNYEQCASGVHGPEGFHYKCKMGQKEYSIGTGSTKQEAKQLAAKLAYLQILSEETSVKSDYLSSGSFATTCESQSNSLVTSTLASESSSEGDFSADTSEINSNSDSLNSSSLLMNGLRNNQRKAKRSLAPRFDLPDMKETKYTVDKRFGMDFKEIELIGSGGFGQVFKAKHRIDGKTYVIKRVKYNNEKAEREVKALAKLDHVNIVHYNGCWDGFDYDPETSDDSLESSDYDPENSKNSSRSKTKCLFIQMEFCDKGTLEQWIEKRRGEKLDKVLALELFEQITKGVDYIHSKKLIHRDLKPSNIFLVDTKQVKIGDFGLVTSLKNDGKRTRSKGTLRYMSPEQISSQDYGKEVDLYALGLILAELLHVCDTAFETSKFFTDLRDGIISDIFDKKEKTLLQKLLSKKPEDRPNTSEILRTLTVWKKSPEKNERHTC
UniProt Q9WTX2: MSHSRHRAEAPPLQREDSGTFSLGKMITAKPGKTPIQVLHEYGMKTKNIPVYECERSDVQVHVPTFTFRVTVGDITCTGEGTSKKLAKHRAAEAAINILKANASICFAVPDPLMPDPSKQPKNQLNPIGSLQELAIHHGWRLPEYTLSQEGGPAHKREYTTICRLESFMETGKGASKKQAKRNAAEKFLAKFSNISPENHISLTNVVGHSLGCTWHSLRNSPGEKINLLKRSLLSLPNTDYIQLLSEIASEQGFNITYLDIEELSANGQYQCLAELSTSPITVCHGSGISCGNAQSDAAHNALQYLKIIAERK

For assay [1], the target named is FLAG-tagged human PKR (human) (UniProt P19525). Description: co-IP; FLAG antibody on lysates of PKR KO MEFs reconstituted with FLAG-tagged human PKR; cells treated 3 hr with high-intensity stress (600 mOsm sucrose or 10% w/v DSS); RIPA buffer, Protein A/G Dynabeads, 4° C; western blot. For orientation: Immunoblotting shows a protein as a band on a membrane.
Assay [2] has the same target. In words: condition: only unstressed or low-intensity stress (500 mOsm sucrose or 5% w/v DSS); co-IP; FLAG antibody on lysates of PKR KO MEFs reconstituted with FLAG-tagged human PKR; cells unstressed or in low-intensity stress (500 mOsm sucrose or 5% w/v DSS, 3 hr); RIPA buffer, Protein A/G Dynabeads, 4° C; western blot.
Assay [3] addresses T1, FLAG-WT PACT (UniProt O75569).
T1 sequence: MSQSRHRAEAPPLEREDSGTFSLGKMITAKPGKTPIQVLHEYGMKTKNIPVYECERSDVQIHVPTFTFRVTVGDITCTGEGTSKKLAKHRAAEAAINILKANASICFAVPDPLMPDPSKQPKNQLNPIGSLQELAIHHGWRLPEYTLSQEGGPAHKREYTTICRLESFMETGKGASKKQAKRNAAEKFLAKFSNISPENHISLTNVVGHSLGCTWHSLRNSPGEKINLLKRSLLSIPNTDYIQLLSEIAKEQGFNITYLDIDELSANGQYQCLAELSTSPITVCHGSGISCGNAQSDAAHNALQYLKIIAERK
In words: co-IP; FLAG antibody on extracts of PACT KO MEFs reconstituted with FLAG-WT or mutant PACT; cells treated with 600 mOsm sucrose for 3 hr; RIPA buffer; western blot.

Changes are numbered by the printed parent chain. No constants are given. Whether binding was seen depends on the method and setting. Binding seen in cells or lysates may run through a third protein. Some binding calls cover weakened binding; strength is not graded here. For part of these data: Sequences can lack the tags named with a protein.

B1: PKR-activating protein (PACT), endogenous in MEFs (protein, UniProt Q9WTX2 1-313)
chain: T1 sequence with Q3H, E14Q, I61V, I236L, K250S, D262E
Regarding B1, the binding result is listed as “binds” in assay [1] and “no binding” in assay [2].

B2: PKR, endogenous in PACT KO MEFs (enzyme, UniProt Q03963 1-515)
chain: MASDTPGFYMDKLNKYRQMHGVAITYKELSTSGPPHDRRFTFQVLIDEKEFPEAKGRSKQEARNAAAKLAVDILDNENKVDCHTSASEQGLFVGNYIGLVNSFAQKKKLSVNYEQCEPNSELPQRFICKCKIGQTMYGTGSGVTKQEAKQLAAKEAYQKLLKSPPKTAGTSSSVVTSTFSGFSSSSSMTSNGVSQSAPGSFSSENVFTNGLGENKRKSGVKVSPDDVQRNKYTLDARFNSDFEDIEEIGLGGFGQVFKAKHRIDGKRYAIKRVKYNTEKAEHEVQALAELNHVNIVQYHSCWEGVDYDPEHSMSDTSRYKTRCLFIQMEFCDKGTLEQWMRNRNQSKVDKALILDLYEQIVTGVEYIHSKGLIHRDLKPGNIFLVDERHIKIGDFGLATALENDGKSRTRRTGTLQYMSPEQLFLKHYGKEVDIFALGLILAELLHTCFTESEKIKFFESLRKGDFSNDIFDNKEKSLLKKLLSEKPKDRPETSEILKTLAEWRNISEKKKRNTC
For B2, the binding entry in assay [3] is “binds”.
